PubChem BioAssay AID2685 (National Center for Advancing Translational Sciences (NCATS), 2010)
Among all 320,000 compounds or so, about 2,100 (0.66%) were called active. Inconclusive results, whose numbers are uncertain, are shown with a selection of clear calls. Calls follow the shape of the dose curve; as a rule, active = well fitted inhibition curve with a large enough effect in the signal ratio, with a control signal flat (not every such curve was filed as active); inconclusive = small, poorly fitted or top-dose-only effect, or effect the other way, or a change in a side signal; inactive = flat fitted curve, though single readings scatter; the % refers to the signal ratio. Potencies of inconclusive entries are doubtful fits and often do not repeat.

Assay: qHTS Assay for Lipid Storage Modulators in Drosophila S3 Cells
Conditions: BODIPY lipid droplet fluorescence, 18-24 h, cells fed with added oleic acid; lipid storage change, negative = inhibition: at 46.1 µM (top of the series) unless noted
Outline: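 Drosophila S3 cells loaded with oleic acid (400 uM, as added) and compounds at several concentrations; lipid droplets imaged by 488-nm laser-scanning cytometry, 500–530 nm intensity and object ratio to cell channel. Percent activity normalized to 20 uM Triacsin C.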
% is scaled to controls: 0 for no effect and ±100 for the full control effect; potency is read from the fitted curve at half-maximal effect.

Compound | Potency | lipid storage change, negative = inhibition
COc1ccccc1NS(=O)(=O)c1ccc(N/N=C/C=C/c2ccccc2[N+](=O)[O-])c([N+](=O)[O-])c1 | inconclusive: 9.2 µM [falling, partial curve, poor fit] | 
O=C(NCc1nc(-c2ccccc2)no1)Nc1ccc(F)cc1 |  | inconclusive: 5.59%
Cc1cc(NC(=O)c2cc(-c3cccnc3)nc3c(C)c(C)ccc23)no1 |  | inconclusive: -45.8%
O=C1OCCC1Sc1nc2ccccc2c(=O)n1Cc1ccc(F)cc1 (configuration not stated) |  | inconclusive: 3.3%
Cc1ccc(N(CC(=O)NCc2cccnc2)S(C)(=O)=O)cc1C |  | inconclusive: 15.6%
O=C(NC12CC3CC(CC(C3)C1)C2)C1CCCN1C(=O)Nc1ccccc1 (configuration not stated) |  | inconclusive: 48.8%
Cc1ccc(C(O)(C(=O)NNS(=O)(=O)c2ccc(C)cc2)c2ccc(C)cc2)cc1 | inconclusive: 10.3 µM [activator, partial curve, poor fit] | 
Cc1ccc(S(=O)(=O)N2CCCCC2)cc1NC(=O)COC(=O)Cc1c(F)cccc1Cl |  | inactive
COc1ccc2oc(C(=O)OCC(=O)N3CCCC(C)C3)c(C)c2c1 (configuration not stated) |  | inconclusive: -5.72%
C=CCn1c(=O)c(C(=O)NCCNCC)c(O)c2ccccc21 |  | inconclusive: 58.2%
O=C(CN1CCCCC1)Nc1ccc(F)c(Cl)c1 | inconclusive: 6.51 µM [activator, partial curve, poor fit] | 
N=C1c2ccccc2CN1NC(=O)CC12CC3CC(CC(C3)C1)C2 |  | inconclusive: 30.7%
COc1ccc(NC(=O)CC2C(=O)N(c3ccc(Cl)cc3)C(=S)N2CCc2ccncc2)cc1 (configuration not stated) |  | inconclusive: -2.21%
Cc1[nH]c2ccccc2c(=O)c1C(=O)/C=C/c1ccccc1 | inconclusive: 29.1 µM [cytotoxic, single point] | 
O=C1C2=C(SCCS2)C(=O)N1c1ccccc1 |  | inconclusive: 42.3%
CC1CCN(C(C)C(=O)Nc2ccc(S(=O)(=O)N3CCCC3)cc2)CC1 (configuration not stated) |  | inconclusive: -13.8%
CN(C(=O)CSc1nnnn1-c1ccccc1)C1CCS(=O)(=O)C1 (configuration not stated) | inconclusive: 29.1 µM [falling, single point] | 
Cc1ccc(/C=C2/SC(=S)N(CCCC(=O)Nc3cc([N+](=O)[O-])ccc3O)C2=O)cc1 |  | inconclusive: 35.8%
Cc1ccc(S(=O)(=O)NNC(=O)C(=O)NNS(=O)(=O)c2ccc(C)cc2)cc1 |  | inconclusive: -32.5%
CCOC(=O)c1cc(C)nc(Sc2ccc(C)cc2)c1C#N |  | inactive
CCOC(=O)N1CCN(C(=O)C2CCCN(c3nc4ccc(OCC)cc4s3)C2)CC1 (configuration not stated) |  | inconclusive: 42.7%
CC1CCN(c2cc(C#N)c(C#N)cc2[N+](=O)[O-])CC1 | active: 23.1 µM | 
Cc1nnc(NC(=O)COc2ccc3c(C)cc(=O)oc3c2)s1 | inconclusive: 29.1 µM [falling, single point] | 
Cc1ccccc1C(=O)OCn1nnc2ccccc2c1=O | inconclusive: 11.6 µM [activator, partial curve, poor fit] | 

Compound | Potency | lipid storage change, negative = inhibition
C=CCn1c(SCC(=O)c2cc(C)n(CCOC)c2C)nc2sc(C)c(C)c2c1=O |  | inconclusive: 22.1%
Cc1cn(CC2COC(C)(C)O2)c(=O)[nH]c1=O (configuration not stated) |  | inconclusive: -13.2%
COc1ccccc1C(CC(=O)c1ccccc1)CC(=O)c1ccccc1 |  | inconclusive: 20.4%
CNC(=O)c1cc(C(=O)c2c(Cl)cccc2Cl)c[nH]1 | inconclusive: 18.4 µM [falling, single point] | 
O=C(CCCc1ccccc1)c1ccc2c(c1)OCCO2 |  | inactive
NNC(=O)c1csc(-c2ncc(C(F)(F)F)cc2Cl)n1 |  | inactive
COc1ccc(C)cc1-n1c(SCC(=O)Nc2cc(C)on2)nc2ccccc2c1=O | inconclusive: 0.164 µM [cytotoxic, full curve, poor fit] | 
CC(NC(=O)c1ccc(N(C)C)c([N+](=O)[O-])c1)c1ccc(-n2ccnc2)cc1 (configuration not stated) |  | inconclusive: -72.4%
CCC(=O)NS(=O)(=O)c1cccnc1Nc1ccc(Cl)cc1 |  | inconclusive: -16.1%
Cc1ccccc1C(=O)Nc1ccc2nc3n(c(=O)c2c1)CCC3 | inconclusive: 23.1 µM [cytotoxic, single point] | 
OC[C@H](O)[C@H](O)[C@@H](O)[C@@H](O)[C@@H]1SC(c2ccccc2)=NN1c1ccccc1 |  | inconclusive: -11.5%
O=C(Nc1ccc(NC(=O)c2ccco2)nc1)c1ccccn1 |  | inconclusive: 21.5%
Cc1sc2ncn(CC(=O)N3CCN(c4ccccc4)CC3)c(=O)c2c1S(=O)(=O)N1CCOCC1 | inconclusive: 25.9 µM [activator, single point] | 
COCCCn1c(=O)c2sccc2n2c(CCCC(=O)N(C)Cc3ccco3)nnc12 |  | inconclusive: -104%
CCOC(=O)c1c(-c2ccc(-c3ccccc3)cc2)csc1NC(=O)C1C2CCC(O2)C1C(=O)O (configuration not stated) |  | inconclusive: -4.87%
CC1(C)CC(CCN)(Cc2ccccc2Cl)CCO1 (configuration not stated) |  | inconclusive: 13.6%
Cc1ccc(-c2ccc(/C=N/n3cnnc3)o2)cc1Cl | inconclusive: 0.82 µM [activator, full curve] | 
O=C(CS(=O)CC(=O)Nc1ccccc1-c1ccccc1)Nc1ccc(F)cc1 (configuration not stated) | inconclusive: 1.46 µM [activator, partial curve] | 
CCOc1ccc(NC(=O)CN2CCN(CC(=O)Nc3ccc4c(c3)OCO4)CC2)cc1 | inconclusive: 0.411 µM [activator, full curve, poor fit] | 
O=C(CN1C(=O)C2C3CCC(C3)C2C1=O)OCC(=O)c1cccc([N+](=O)[O-])c1 (configuration not stated) |  | inactive
CCC(=O)N(Cc1cc2cc(OC)ccc2[nH]c1=O)c1cccc(C)c1 | inconclusive: 6.51 µM [activator, partial curve] | 
CCN(CC)S(=O)(=O)c1ccc(NC(=O)c2nc3nc(C)cc(C)n3n2)cc1 | inconclusive: 9.2 µM [falling, partial curve] | 
O=C(COC(=O)c1cccnc1SCC(=O)NCc1ccccc1)NCc1ccccc1 |  | inconclusive: 191%

3 entries picked at random from the list so far:
Compound | Potency | lipid storage change, negative = inhibition
O=C(CS(=O)CC(=O)Nc1ccccc1-c1ccccc1)Nc1ccc(F)cc1 (configuration not stated) | inconclusive: 1.46 µM [activator, partial curve] | 
COCCCn1c(=O)c2sccc2n2c(CCCC(=O)N(C)Cc3ccco3)nnc12 |  | inconclusive: -104%
CCN(CC)S(=O)(=O)c1ccc(NC(=O)c2nc3nc(C)cc(C)n3n2)cc1 | inconclusive: 9.2 µM [falling, partial curve] | 
